Literature values in US5605911A, “Use of alpha-2 adrenergic drugs to prevent adverse effects of NMDA receptor hypofunction (NRH)” (priority 1995, dated 1997).

System: neurotoxic side effects caused by NMDA antagonists such as PCP or MK-801
Conditions: in vivo; cited from earlier work

**Q.** Which “block of neurotoxic side effects caused by NMDA antagonists” value (from here on “block of neurotoxic side effects caused”) does the source give for `CN1[C@@H]2CC[C@H]1C[C@@H](OC(=O)C(CO)c1ccccc1)C2` (stereo partly drawn) [atropine] here?
**A.** The value was “can block the neurotoxic side effects caused by NMDA antagonists”.

**Q.** For `CN(C)CCOC(c1ccccc1)c1ccccc1` [diphenhydramine], which “block of neurotoxic side effects caused” value is on record?
**A.** The value was “can block the neurotoxic side effects caused by NMDA antagonists”.

**Q.** Which “block of neurotoxic side effects caused” value does the source give for `CN1[C@@H]2C[C@@H](OC(=O)[C@H](CO)c3ccccc3)C[C@H]1[C@@H]1O[C@@H]12` [scopolamine] here?
**A.** Its value is “can block the neurotoxic side effects caused by NMDA antagonists”.
